# Measured values from patent US10201588B2, “Materials and methods of treating dyslipidemia” (UNIVERSITY OF MIAMI, priority 2017, dated 2019).
# Marks after values point to notes of the source that are not given here.
# Test system: T1D rats
# Assay: T1 diabetes animal model: metabolic cages (food and water intake, 24-h urine volume, body weight) and small intestine length
# Format: in vivo, rat
# [1] = T1D rats, MIA-602 25 μg/kg s.c. three times a week for 14 weeks, metabolic cages, 24 h, mean±SD
substance,measurement,setting,value
Phac-Ada-Ty^1-D-Arg^2-Asp^3-Ala^4-Ile^5-Phe(F)5^6-Thr^7-Ala^8-Har^9-Tyr(me)^10-His^11-Orn^12-Val^13-Leu^14-Abu^15-Glu^16-Leu^17-Ser^18-Ala^19-His^20-Orn^21-Leu^22-Leu^23-Glu^24-Asp^25-Ile^26-Nle^27-D-Arg^28-Har^29-NH2 [MIA-602],"Small intestine length, pylorus to ileocecal junction","MIA-602-diabetes rats, averaged value (diabetes 155.8±10.6, control 96±17.1)",157.3±7.6 cm
same,Body weight,"T1D rats, MIA-602 25 μg/kg s.c. three times a week for 14 weeks, mean±SD",336.3 ± 59.7^c g
same,Food intake,[1],32.9 ± 16.6^b g/day
same,Water intake,[1],121.9 ± 37.5^a ml/day
same,24-hour urine volume,"T1D rats, MIA-602 25 μg/kg s.c. three times a week for 14 weeks, metabolic cages, mean±SD",84.5 ± 25.9^a ml/day
same,Effect on body weight during the study,"T1D rats, at any point during the study",did not affect
